# In the supplement of paper PMC12819154, “High-throughput peptide-centric local stability assay extends protein–ligand identification to membrane proteins, tissues and bacteria” (Nature Structural & Molecular Biology, 2025):
# Sequences of proteins named here, by UniProt entry; tags and fusion partners are left off. A change or cut given only in a name is not applied to a line headed by its entry.
# UniProt P0ACX3: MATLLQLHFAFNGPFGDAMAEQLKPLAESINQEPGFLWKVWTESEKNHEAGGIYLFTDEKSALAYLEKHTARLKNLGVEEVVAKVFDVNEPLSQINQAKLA
# UniProt P0AAT4: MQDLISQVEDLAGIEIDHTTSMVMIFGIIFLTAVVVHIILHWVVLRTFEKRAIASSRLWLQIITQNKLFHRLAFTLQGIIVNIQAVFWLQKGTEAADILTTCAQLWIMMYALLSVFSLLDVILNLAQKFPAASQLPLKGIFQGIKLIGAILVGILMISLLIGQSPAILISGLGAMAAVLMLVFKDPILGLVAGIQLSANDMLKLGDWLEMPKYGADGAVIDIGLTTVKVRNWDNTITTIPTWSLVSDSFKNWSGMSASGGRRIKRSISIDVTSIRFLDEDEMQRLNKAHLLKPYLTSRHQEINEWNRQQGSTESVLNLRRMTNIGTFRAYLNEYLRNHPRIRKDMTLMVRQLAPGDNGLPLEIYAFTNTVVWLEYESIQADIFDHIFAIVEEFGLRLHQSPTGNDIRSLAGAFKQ
# UniProt P0AB26: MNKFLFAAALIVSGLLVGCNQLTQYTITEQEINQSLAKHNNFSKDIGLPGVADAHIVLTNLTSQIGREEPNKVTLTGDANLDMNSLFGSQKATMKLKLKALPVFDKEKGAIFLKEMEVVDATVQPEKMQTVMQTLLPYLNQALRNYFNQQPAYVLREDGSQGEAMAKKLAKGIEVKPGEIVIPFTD
# UniProt P0AAR8: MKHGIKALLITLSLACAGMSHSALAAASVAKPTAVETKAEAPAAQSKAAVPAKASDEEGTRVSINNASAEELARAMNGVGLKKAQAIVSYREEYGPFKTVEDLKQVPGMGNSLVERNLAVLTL
# UniProt P0AAC4: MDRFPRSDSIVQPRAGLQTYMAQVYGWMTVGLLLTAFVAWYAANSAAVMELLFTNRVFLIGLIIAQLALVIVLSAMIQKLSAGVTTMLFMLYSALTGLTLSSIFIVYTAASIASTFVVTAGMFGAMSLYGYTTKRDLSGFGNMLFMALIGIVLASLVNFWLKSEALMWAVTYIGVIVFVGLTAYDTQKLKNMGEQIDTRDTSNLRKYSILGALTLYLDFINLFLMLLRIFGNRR
# UniProt P0AAS3: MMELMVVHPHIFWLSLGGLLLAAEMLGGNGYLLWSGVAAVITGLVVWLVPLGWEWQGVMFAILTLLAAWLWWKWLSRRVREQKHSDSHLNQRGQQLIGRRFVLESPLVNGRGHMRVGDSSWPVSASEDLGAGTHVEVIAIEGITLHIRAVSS
# UniProt P0ACR7: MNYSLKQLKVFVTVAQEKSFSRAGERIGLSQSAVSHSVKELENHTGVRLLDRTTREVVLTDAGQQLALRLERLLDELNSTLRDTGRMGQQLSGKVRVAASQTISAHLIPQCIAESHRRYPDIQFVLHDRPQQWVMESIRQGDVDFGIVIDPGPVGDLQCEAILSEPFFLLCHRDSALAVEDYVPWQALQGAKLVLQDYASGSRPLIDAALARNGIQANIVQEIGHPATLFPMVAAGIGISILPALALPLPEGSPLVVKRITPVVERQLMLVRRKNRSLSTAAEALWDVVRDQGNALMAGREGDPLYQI
# UniProt P0ACW4: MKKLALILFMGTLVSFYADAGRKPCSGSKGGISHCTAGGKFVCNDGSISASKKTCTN
# UniProt P0AAG8: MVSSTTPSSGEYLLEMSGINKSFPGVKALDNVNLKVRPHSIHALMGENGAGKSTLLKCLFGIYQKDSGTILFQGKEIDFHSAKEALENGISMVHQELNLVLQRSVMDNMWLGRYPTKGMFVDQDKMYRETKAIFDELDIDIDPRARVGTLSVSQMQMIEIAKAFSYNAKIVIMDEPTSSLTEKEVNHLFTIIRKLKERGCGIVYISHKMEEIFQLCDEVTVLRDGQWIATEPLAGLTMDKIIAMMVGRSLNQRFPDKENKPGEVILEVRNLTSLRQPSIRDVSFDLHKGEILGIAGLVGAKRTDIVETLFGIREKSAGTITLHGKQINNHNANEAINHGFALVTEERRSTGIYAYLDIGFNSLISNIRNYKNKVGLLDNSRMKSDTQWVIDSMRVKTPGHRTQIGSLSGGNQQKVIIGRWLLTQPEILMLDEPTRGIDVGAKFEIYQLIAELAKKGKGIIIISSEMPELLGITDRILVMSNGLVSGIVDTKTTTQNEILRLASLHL
# UniProt P0AAC8: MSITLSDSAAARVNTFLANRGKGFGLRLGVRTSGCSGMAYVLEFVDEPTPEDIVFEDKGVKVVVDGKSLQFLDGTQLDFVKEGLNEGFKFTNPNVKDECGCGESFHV
# UniProt P0ACK2: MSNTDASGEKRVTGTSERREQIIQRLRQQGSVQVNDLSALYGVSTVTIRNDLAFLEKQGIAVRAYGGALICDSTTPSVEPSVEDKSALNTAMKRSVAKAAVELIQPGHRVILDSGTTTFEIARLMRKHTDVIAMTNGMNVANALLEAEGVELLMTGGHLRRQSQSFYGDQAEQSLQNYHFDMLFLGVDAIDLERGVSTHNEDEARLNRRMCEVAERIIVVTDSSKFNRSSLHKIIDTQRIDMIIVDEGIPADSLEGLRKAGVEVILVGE
# Some of the results follow. Most entries show no effect beyond the scatter of the controls.
# Compound: CC1(C)S[C@@H]2[C@H](NC(=O)[C@H](N)c3ccccc3)C(=O)N2[C@H]1C(=O)O [ampicillin]
# Experiment: log2 fold change of tryptic peptide abundance, ligand vs vehicle (limited proteolysis) (log2 ratio); higher = more trypsin-susceptible (destabilized)
# Details: ligand concentration: 10 uM; sample: E. coli crude lysate
row,Target,log2 fold change
1,"UniProt P0ACX3 (peptide sequence: NLGVEEVVAK, peptide start residue: 75)",-0.156
2,"UniProt P0AAT4 (peptide sequence: HQEINEWNR, peptide start residue: 299)",-0.144
3,"UniProt P0AB26 (peptide sequence: EDGSQGEAMAKK, peptide start residue: 157)",-0.766
4,"UniProt P0AAR8 (peptide sequence: ASDEEGTR, peptide start residue: 54)",0.441
5,"UniProt P0AAC4 (peptide sequence: SDSIVQPR, peptide start residue: 7)",0.0326
6,"UniProt P0AAS3 (peptide sequence: HSDSHLNQR, peptide start residue: 84)",-0.18
7,"UniProt P0ACR7 (peptide sequence: VFVTVAQEK, peptide start residue: 10)",-0.0866
8,"UniProt P0ACW4 (peptide sequence: FVCNDGSISASK, peptide start residue: 41)",0.472
9,"UniProt P0AAG8 (peptide sequence: DSGTILFQGK, peptide start residue: 66)",-0.352
10,"UniProt P0ACU0 (peptide sequence: LLTQDDTVNLSK, peptide start residue: 109)",-0.161
11,"UniProt P0AAC8 (peptide sequence: EGLNEGFK, peptide start residue: 82)",0.149
12,"UniProt P0ACK2 (peptide sequence: MCEVAER, peptide start residue: 210)",-0.308

# 2 entries picked at random from those above, as already listed:
row,Target,log2 fold change
3,"UniProt P0AB26 (peptide sequence: EDGSQGEAMAKK, peptide start residue: 157)",-0.766
10,"UniProt P0ACU0 (peptide sequence: LLTQDDTVNLSK, peptide start residue: 109)",-0.161
